Experimental data: PubChem BioAssay (NCATS)
“And” between values parts separate entries of the source, which are not always exact repeats. Equal entries are not always repeated. The shares of active, inactive and inconclusive entries below differ from those in the screen. Potencies beside an inconclusive call are fits to weak or partial responses and may not hold up. The source made the active and inactive calls. Unless noted, calls come from the whole dose curve; as a rule, active = well fitted curve in the direction sought with a large enough effect; inconclusive = small, poorly fitted or top-dose-only effect, or another doubt; inactive = no such curve, though single readings can be large; an effect the other way counts as inactive or inconclusive.

Assays:
[1] = Quantitative High-Throughput drug screen in 47 multiple myeloma cell lines against the NCATS MIPE library collection: OPM2_DSMZ cell viability assay (AID 1919872); conditions: OPM2 myeloma viability, CellTiter-Glo ATP luminescence, 48 h; series mostly up to 45.8 µM; note: nearly all actives have a fitted effect of over 30% in size
Outline: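 Inhibition of cell viability is measured here. Each line was plated at 500 cells per well, treated with MIPE 4.0 drugs, kept 48 hours at 37C, then assayed for ATP content by CellTiter-Glo luminescence.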

[2] = Quantitative High-Throughput drug screen in 47 multiple myeloma cell lines against the NCATS MIPE library collection: KMS11_JCRBsus cell viability assay (AID 1919873); conditions: KMS11 myeloma viability, CellTiter-Glo ATP luminescence, 48 h; series mostly up to 45.8 µM; note: nearly all actives have a fitted effect of over 50% in size;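 for viability (% of control): 100% = DMSO-only wells and 0% = media-only wells without cells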
Outline: (§1)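 500 cells/well; MIPE 4.0 drugs pin-transferred; 48 h, 37C, 5% CO2. CellTiter-Glo, 5 min RT, luminescence. Controls: DMSO 100%, media 0%.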

[3] = Quantitative High-Throughput drug screen in 47 multiple myeloma cell lines against the NCATS MIPE library collection: KMS28BM_JCRB cell viability assay (AID 1919874); conditions: CellTiter-Glo ATP, 48 h; series mostly up to 45.8 µM; note: nearly all actives have a fitted effect of over 35% in size
Outline: as §1

[4] = tested on: CRL-7250; assay: Cytotoxic Profiling of Annotated Libraries Using Quantitative High-Throughput Screening (AID 1296008); conditions: Five cell lines viability, CellTiter-Glo ATP luminescence, 48-72 h; max response: stronger effect = lower value; note: nearly all actives have a fitted effect of over 60% in size; for max response: % is set by controls: 0 for no effect and ±100 for the full control effect
Outline: (§2)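 Cells exposed to compounds for 48 or 72 hr at 37 degrees Celsius. Viability read as ATP-coupled luminescence with CellTiter-Glo after 10 min at room temperature.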

[5] = tested on: HEK293; assay: as above; conditions: Five cell lines viability, CellTiter-Glo ATP luminescence, 48-72 h; max response: stronger effect = lower value
Outline: as §2

[6] = Quantitative High-Throughput drug screen in 47 multiple myeloma cell lines against the NCATS MIPE library collection: UTMC2_PLB cell viability assay (AID 1919868); conditions: CellTiter-Glo ATP luminescence, 48 h; viability (% of DMSO control): at 45.8 µM (top of the series); note: nearly all actives have a fitted effect of over 55% in size;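 for viability (% of DMSO control): 100% = DMSO-only wells and 0% = media-only wells without cells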
Outline: as §1

[7] = Quantitative High-Throughput drug screen in 47 multiple myeloma cell lines against the NCATS MIPE library collection: RPMI8226_ATCC cell viability assay (AID 1919871); conditions: RPMI8226 myeloma viability, CellTiter-Glo ATP luminescence, 48 h; series mostly up to 45.8 µM; note: nearly all actives have a fitted effect of over 30% in size
Outline: as §1

[8] = tested on: HaCat; assay: Cytotoxic Profiling of Annotated Libraries Using Quantitative High-Throughput Screening (AID 1296008); conditions: Five cell lines viability, CellTiter-Glo ATP luminescence, 48-72 h; max response: stronger effect = lower value; note: nearly all actives have a fitted effect of over 60% in size; for max response: % is set by controls: 0 for no effect and ±100 for the full control effect
Outline: as §2

[9] = tested on: KB-3-1; assay: as above; conditions: Five cell lines viability, CellTiter-Glo ATP luminescence, 48-72 h; max response: stronger effect = lower value
Outline: as §2

[10] = tested on: NIH3T3; assay: as above; conditions: Five cell lines viability, CellTiter-Glo ATP luminescence, 48-72 h; max response: stronger effect = lower value
Outline: as §2

[11] = Quantitative High-Throughput drug screen in 47 multiple myeloma cell lines against the NCATS MIPE library collection: PE2_PLB cell viability assay (AID 1919869); conditions: PE2_PLB myeloma cells viability, ATP luminescence, 48 h; series mostly up to 45.8 µM; note: nearly all actives have a fitted effect of over 35% in size;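 for viability (% of control): 100% = DMSO-only wells and 0% = cell-free media-only wells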
Outline: as §1

[12] = Quantitative High-Throughput drug screen in 47 multiple myeloma cell lines against the NCATS MIPE library collection: PCM6_Riken cell viability assay (AID 1919870); conditions: CellTiter-Glo ATP, 48 h; viability (% of control): at 45.8 µM (top of the series); note: nearly all actives have a fitted effect of over 30% in size
Outline: as §1

[13] = qHTS for identification of novel therapeutic agents for treatment of microphthalmiaassociated transcription factor (MiT) renal cell carcinoma (RCC) (AID 1963991; calls by dose curve); conditions: TFE3-RCC UOK109 viability, CellTiter-Glo, 48 h; active = Z-AUC below -0.8 in all three lines
Outline: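 Three TFE3-fusion RCC cell lines (UOK109, UOK124, UOK145), 500 cells/well, were exposed to the 1912-compound MIPE 4.0 library for 48 hours at 37 C. Viability was read by CellTiter-Glo luminescence, normalised to DMSO (100%) and empty wells (0%), with 11-concentration curve fits.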

[14] = tested on: MCC-13; assay: qHTS assay to identify novel small-molecules to repurpose for Merkel cell carcinoma treatment (AID 1296009); conditions: MCC and control cell lines, CellTiter-Glo viability, 72 h; series mostly up to 46 µM; note: nearly all actives have a fitted effect of over 60% in size
Outline: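 CellTiter-Glo luminescence after 72 hr compound exposure at 37 degree celsius gave cell viability. Libraries NPC and MIPE were run as 8- and 11-point dose responses; RLUs normalized to DMSO (negative) and no-cell (cytotoxicity) controls.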
Potency is the fitted concentration of half-maximal effect.

CN(C)Cc1cccc(N=C(c2ccccc2)c2c(O)[nH]c3cc(C(=O)N(C)C)ccc23)c1
active: Potency [4] 20.9 µM
inconclusive: Potency [1] 11.8 µM [rising, single point] | Potency [2] 23.5 µM [cytotoxic, partial curve, poor fit] | Potency [3] 6.62 µM [cytotoxic, partial curve] | Potency [5] 33.2 µM [inhibitor, single point]

Cc1cn2c(-c3cn[nH]c3)cnc2c(Nc2ccc(C(=O)N3CCNCC3)cc2F)n1
inconclusive: Potency [6] 11.8 µM [cytotoxic, partial curve, poor fit] | Potency [7] 20.9 µM [cytotoxic, partial curve] | Potency [8] 18.7 µM [inhibitor, partial curve] | Potency [9] 20.9 µM [inhibitor, partial curve] | Potency [10] 29.1 µM [inhibitor, partial curve, poor fit]
active: Potency [1] 23.5 µM | Potency [4] 6.51 µM

CCCCCCCCCCCC(CC1OC(=O)C1CCCCCC)OC(=O)C(CC(C)C)NC=O (stereo unspecified)
active: Potency [7] 18.7 µM
inactive: Potency [11]
inconclusive: Potency [6] 0.332 µM [cytotoxic, full curve, poor fit] | Potency [1] 16.6 µM [cytotoxic, partial curve, poor fit] | Potency [4] 37.2 µM [inhibitor, single point] | Potency [5] 23.5 µM [inhibitor, partial curve, poor fit]

Cc1ccc(Nc2cc(-c3cccc(N4C(=O)c5ccccc5C4=O)c3)ncn2)cc1NS(C)(=O)=O
inactive: outcome [4]
inconclusive: Potency [3] 33.2 µM [cytotoxic, single point] | Potency [13] 16.6 µM [falling, partial curve] | Potency [5] 29.1 µM [inhibitor, single point]
active: Potency [12] 14.8 µM | Potency [2] 20.9 µM

CN(C)N=Nc1nc[nH]c1C(N)=O
inactive: Potency [12] | Potency [7]
active: Potency [5] 3.72 µM
inconclusive: viability (% of DMSO control) [6] 123% [cytotoxic] | Potency [11] 13.2 µM [cytotoxic, partial curve, poor fit] | Potency [3] 0.209 µM [rising, full curve, poor fit] | Potency [13] 2.64 µM | Potency [4] 37.2 µM [inhibitor, single point]

CCNC(=O)c1cc2c(-c3cc(OCCN4CCCC4)c(Cl)cc3Cl)nc(N)nc2s1
active: Potency [4] 4.69 µM | Potency [10] 2.35 µM
inconclusive: Potency [13] 4.18 µM [falling, full curve] | Potency [8] 0.743 µM [inhibitor, full curve] | Potency [9] 0.296 µM [inhibitor, full curve] | Potency [14] 5.9 µM [inhibitor, full curve]

COC(=O)C1=C(C)NC(C)=C(C(=O)OCCCN2CCC(c3ccccc3)(c3ccccc3)CC2)C1c1cccc([N+](=O)[O-])c1 (stereo unspecified)
inactive: Potency [6] | Potency [12]
inconclusive: Potency [7] 5.26 µM [cytotoxic, partial curve, poor fit] | Potency [4] 29.9 µM [inhibitor, single point] | Potency [8] 33.5 µM [inhibitor, single point] | Potency [9] 23.1 µM [inhibitor, single point]

CN(C)C(=O)[C@H](O)[C@H](Cc1ccccc1)NC(=O)c1cc2cc(Cl)ccc2[nH]1
active: Potency [6] 3.32 µM | Potency [1] 14.8 µM
inconclusive: Potency [3] 0.0662 µM [rising, full curve, poor fit] | Potency [13] 9.35 µM [falling, partial curve] | Potency [4] 4.69 µM [inhibitor, partial curve, poor fit] | Potency [5] 33.2 µM [inhibitor, single point] and 18.4 µM [inhibitor, single point]

Cc1ccn(-c2ccc(-c3ncco3)cc2)c(=O)c1-c1ccc2nc(N)ncc2c1
inconclusive: Potency [6] 5.9 µM [rising, partial curve, poor fit] | Potency [12] 1.18 µM [cytotoxic, full curve] | Potency [1] 37.2 µM [cytotoxic, single point] | Potency [5] 5.26 µM [inhibitor, full curve] and 29.1 µM [inhibitor, single point]
inactive: Potency [7] | Potency [3]
active: Potency [4] 1.66 µM and 5.17 µM

Cc1ccc(-n2[nH]c(C)c(N=Nc3cccc(-c4cccc(C(=O)O)c4)c3O)c2=O)cc1C
inconclusive: Potency [6] 13.2 µM [cytotoxic, partial curve, poor fit] | Potency [12] 33.2 µM [cytotoxic, single point] | Potency [7] 23.5 µM [cytotoxic, single point] | Potency [3] 18.7 µM [cytotoxic, partial curve] | Potency [13] 6.62 µM [falling, partial curve] | Potency [4] 18.8 µM [inhibitor, partial curve, poor fit] | Potency [5] 26.6 µM [inhibitor, partial curve, poor fit] | Potency [10] 20.9 µM [inhibitor, partial curve]

CC(C)N(CCCNC(=O)Nc1ccc(C(C)(C)C)cc1)C[C@H]1O[C@@H](n2cc(Br)c3c(N)ncnc32)[C@H](O)[C@H]1O
inconclusive: Potency [6] 33.2 µM [cytotoxic, single point] | Potency [11] 23.5 µM [cytotoxic, partial curve] | Potency [7] 14.8 µM [cytotoxic, partial curve] | Potency [3] 0.0132 µM [cytotoxic, full curve, poor fit] | Potency [13] 18.7 µM [falling, partial curve, poor fit] | Potency [4] 37.2 µM [inhibitor, single point] | Potency [10] 29.6 µM [inhibitor, single point]
active: Potency [5] 18.7 µM

COc1ccc2c(Oc3ccc(NC(=O)c4c(C)n(CC(C)(C)O)n(-c5ccccc5)c4=O)cc3F)ccnc2c1
inconclusive: Potency [6] 26.4 µM [cytotoxic, single point] | Potency [11] 37.2 µM [cytotoxic, single point] | Potency [12] 14.8 µM [cytotoxic, partial curve] | Potency [1] 26.4 µM [cytotoxic, single point] | Potency [2] 26.4 µM [cytotoxic, single point] | Potency [3] 37.2 µM [cytotoxic, single point] | Potency [13] 37.2 µM | Potency [4] 33.2 µM [inhibitor, single point] and 18.4 µM [inhibitor, single point] | Potency [5] 29.6 µM [inhibitor, single point] | Potency [9] 29.1 µM [inhibitor, single point]

CN1C(=O)C[C@H](C(=O)N[C@@H](Cc2cnc[nH]2)C(=O)N2CCC[C@@H]2C(N)=O)NC1=O
inconclusive: Potency [6] 33.2 µM [cytotoxic, single point] | Potency [11] 16.6 µM [cytotoxic, partial curve, poor fit] | Potency [12] 16.6 µM [cytotoxic, partial curve] | Potency [4] 33.2 µM [inhibitor, single point] | Potency [5] 37.2 µM [inhibitor, single point]

2 successive records from above, for reference:
Cc1ccc(-n2[nH]c(C)c(N=Nc3cccc(-c4cccc(C(=O)O)c4)c3O)c2=O)cc1C
inconclusive: Potency [6] 13.2 µM [cytotoxic, partial curve, poor fit] | Potency [12] 33.2 µM [cytotoxic, single point] | Potency [7] 23.5 µM [cytotoxic, single point] | Potency [3] 18.7 µM [cytotoxic, partial curve] | Potency [13] 6.62 µM [falling, partial curve] | Potency [4] 18.8 µM [inhibitor, partial curve, poor fit] | Potency [5] 26.6 µM [inhibitor, partial curve, poor fit] | Potency [10] 20.9 µM [inhibitor, partial curve]

CC(C)N(CCCNC(=O)Nc1ccc(C(C)(C)C)cc1)C[C@H]1O[C@@H](n2cc(Br)c3c(N)ncnc32)[C@H](O)[C@H]1O
inconclusive: Potency [6] 33.2 µM [cytotoxic, single point] | Potency [11] 23.5 µM [cytotoxic, partial curve] | Potency [7] 14.8 µM [cytotoxic, partial curve] | Potency [3] 0.0132 µM [cytotoxic, full curve, poor fit] | Potency [13] 18.7 µM [falling, partial curve, poor fit] | Potency [4] 37.2 µM [inhibitor, single point] | Potency [10] 29.6 µM [inhibitor, single point]
active: Potency [5] 18.7 µM

Next results

N=C1SC(=Cc2ccc(-c3ccc4c(c3)C(=O)NC4=O)o2)C(=O)N1c1ccc(Br)cc1
inconclusive: Potency [12] 2.35 µM [cytotoxic, partial curve, poor fit] | Potency [4] 37.2 µM [inhibitor, single point]
inactive: Potency [2] | max response [5] 1.89% | max response [10] 1.79%

Cc1ccc([C@@H]2O[C@H](CO)[C@@H](O)[C@H](O)[C@@H]2O)cc1Cc1ccc(-c2ccc(F)cc2)s1
inconclusive: Potency [12] 20.9 µM [cytotoxic, partial curve, poor fit] | Potency [1] 33.2 µM [cytotoxic, single point] | Potency [3] 23.5 µM [cytotoxic, single point] | Potency [13] 18.7 µM [falling, partial curve, poor fit] | Potency [4] 11.8 µM [inhibitor, single point]
active: Potency [5] 14.8 µM
inactive: Potency [6] | Potency [7]
